Experimental data published in paper PMC9468337.
These are yes or no findings as the source states them, for the method shown. Binding seen in cells or lysates may run through a third protein. Some results given as binding are weak or reduced against the parent protein; the word gives no strength.

Amino acid sequences for entries named in this document (tags omitted).
UniProt Q3T906: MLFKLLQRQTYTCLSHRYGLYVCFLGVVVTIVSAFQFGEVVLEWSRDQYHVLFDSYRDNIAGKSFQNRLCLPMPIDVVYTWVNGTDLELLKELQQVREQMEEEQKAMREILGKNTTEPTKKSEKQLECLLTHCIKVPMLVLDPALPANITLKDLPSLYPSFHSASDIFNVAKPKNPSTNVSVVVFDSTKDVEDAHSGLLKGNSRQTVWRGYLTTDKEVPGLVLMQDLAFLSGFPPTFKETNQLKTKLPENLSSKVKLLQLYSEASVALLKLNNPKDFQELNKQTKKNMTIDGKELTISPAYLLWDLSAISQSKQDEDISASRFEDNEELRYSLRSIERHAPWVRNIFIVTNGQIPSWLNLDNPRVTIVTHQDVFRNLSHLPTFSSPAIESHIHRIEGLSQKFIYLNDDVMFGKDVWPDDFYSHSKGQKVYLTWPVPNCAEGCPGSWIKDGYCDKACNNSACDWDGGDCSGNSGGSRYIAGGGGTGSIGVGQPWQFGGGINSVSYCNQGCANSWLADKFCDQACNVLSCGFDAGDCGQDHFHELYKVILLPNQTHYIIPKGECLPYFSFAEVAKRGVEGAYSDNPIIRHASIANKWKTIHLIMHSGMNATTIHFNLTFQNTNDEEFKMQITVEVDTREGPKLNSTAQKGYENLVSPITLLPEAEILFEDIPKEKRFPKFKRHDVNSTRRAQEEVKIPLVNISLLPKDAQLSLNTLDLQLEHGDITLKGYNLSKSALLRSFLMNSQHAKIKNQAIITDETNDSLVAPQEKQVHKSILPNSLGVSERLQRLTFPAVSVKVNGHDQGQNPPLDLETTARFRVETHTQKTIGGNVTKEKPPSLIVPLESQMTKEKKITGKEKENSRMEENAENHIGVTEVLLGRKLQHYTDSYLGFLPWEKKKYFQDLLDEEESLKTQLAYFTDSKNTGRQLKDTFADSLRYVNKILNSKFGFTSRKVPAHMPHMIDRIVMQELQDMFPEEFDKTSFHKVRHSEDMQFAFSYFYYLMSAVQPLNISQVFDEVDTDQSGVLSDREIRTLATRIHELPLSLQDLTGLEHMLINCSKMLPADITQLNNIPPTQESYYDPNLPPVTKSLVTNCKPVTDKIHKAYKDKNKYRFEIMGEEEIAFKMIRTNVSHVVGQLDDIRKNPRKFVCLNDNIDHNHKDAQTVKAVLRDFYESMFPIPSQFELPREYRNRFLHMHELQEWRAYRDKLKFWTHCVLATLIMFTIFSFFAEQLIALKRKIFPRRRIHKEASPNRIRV

T1: TMEM251 (GNPTAB cleavage and activity factor), short isoform (human) (UniProt Q8N6I4)
T1 sequence: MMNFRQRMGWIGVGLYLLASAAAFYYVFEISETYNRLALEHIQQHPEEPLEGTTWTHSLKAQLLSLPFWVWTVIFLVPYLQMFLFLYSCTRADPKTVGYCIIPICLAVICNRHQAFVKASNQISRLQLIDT


Assays:
[1] = molecular target: T1, TMEM251 (GNPTAB cleavage and activity factor), short isoform (human); experiment: co-IP; reciprocal IP 48 h after transfection; lysis in 20 mM Tris pH 8.0, 150 mM NaCl, 1% Triton; anti-FLAG M2, anti-V5 or anti-HA beads at 4 °C; washed 4 times with lysis buffer; western blot
[2] = molecular target: GNPTAB (GNPT α/β precursor) (UniProt Q3T906); experiment: as above

Molecule	binding [1]	binding [2]
GNPTAB (GNPT α/β precursor) (from UniProt Q3T906 1-1256) (enzyme)	binds	–
TMEM251 (GNPTAB cleavage and activity factor), short isoform (protein, UniProt Q8N6I4-2 1-131) MMNFRQRMGWIGVGLYLLASAAAFYYVFEISETYNRLALEHIQQHPEEPLEGTTWTHSLKAQLLSLPFWVWTVIFLVPYLQMFLFLYSCTRADPKTVGYCIIPICLAVICNRHQAFVKASNQISRLQLIDT	–	binds
